Experimental findings from paper PMC10814579 are described below.

Results are given in words; binding and its absence hold for the method and conditions named. In cells and extracts the contact can be indirect. Some binding calls cover weakened binding; strength is not graded here.

The experiment has as its target DHX9 (mouse (endogenous in NIH-3T3)), O70133. As to the kind of experiment: co-IP; lysates of NIH-3T3 cells (untreated, Olaparib- or Camptothecin-treated) immunoprecipitated with anti-PARP1 or anti-DHX9 antibody (4 h, 4 °C), Protein A/G magnetic beads, Western blot with the other antibody. To be noted: remark: other sources report otherwise.

B1: PARP1, P11103 1-1013 (protein)
chain: MAEASERLYRVQYAKSGRASCKKCSESIPKDSLRMAIMVQSPMFDGKVPHWYHFSCFWKVGQSIRHPDVEVDGFSELRWDDQQKVKKTAEAGGVAGKGQDGSGGKAEKTLGDFAAEYAKSNRSMCKGCLEKIEKGQMRLSKKMVDPEKPQLGMIDRWYHPTCFVKKRDELGFRPEYSASQLKGFSLLSAEDKEALKKQLPAIKNEGKRKGDEVDGTDEVAKKKSRKETDKYSKLEKALKAQNELIWNIKDELKKACSTNDLKELLIFNQQQVPSGESAILDRVADGMAFGALLPCKECSGQLVFKSDAYYCTGDVTAWTKCMVKTQNPSRKEWVTPKEFREISYLKKLKVKKQDRIFPPESSAPITVHWPLSVTSAPTAVNSSAPADKPLSNMKILTLGKLSQNKDEAKAVIEKLGGKLTGSANKASLCISIKKEVEKMNKKMEEVKEANIRVVSEDFLQDVSASTKSLQDLLSAHSLSPWGAEVKAEPGEVVAPRGKSAAPSKKSKGCFKEEGVNKSEKRMKLTLKGGAAVDPDSGLEHSAHVLEKGGKVFSATLGLVDIVKGTNSYYKLQLLEDDKESRYWIFRSWGRLGTVIGSNKLEQMPSKEEAVEQFMKLYEEKTGNAWHSKNFTKYPKKFYPLEIDYGQDEEAVKKLTVKPGTKSKLPKPVQELVGMIFDVDSMKKALVEYEIDLQKMPLGKLSRRQIQAAYSILSEVQQPVSQGSSESQILDLSNRFYTLIPHDFGMKKPPLLNNADSVQAKVEMLDNLLDIEVAYSLLRGGSDDSSKDPIDVNYEKLKTDIKVVDRDSEEAEVIRKYVKNTHATTHNAYDLEVIDIFKIEREGESQRYKPFRQLHNRRLLWHGSRTTNFAGILSQGLRIAPPEAPVTGYMFGKGIYFADMVSKSANYCHTSQGDPIGLIMLGEVALGNMYELKHASHISKLPKGKHSVKGLGKTTPDPSASITLEGVEVPLGTGIPSGVNDTALLYNEYIVYDIAQVNLKYLLKLKFNFKTSLW
For the molecule B1, the binding result was “binds”.
